Measured data: PubChem BioAssay AID1259308 (NCATS, 2017)

- Test: 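Candidate targets for better recombinant protein yield in mammalian cells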 (primary screen)
- Cell system: human HEK293 embryonic kidney cells stably expressing firefly luciferase (HEK-CMV-Luc2-Hygro)
- Reagents: single siRNA against human genes, 0.8 pmol siRNA per well
- Timing: 72 h
- Detection: 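Reporter luminescence and viable-cell signal on separate replicate plates, given as percent of non-targeting control and median/MAD z-scores, plus per-cell luciferase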
- Reading the numbers: total luciferase, z-score: higher = more reporter protein produced
- Rule for the call: 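Active when the median/MAD z-score for overall luciferase is greater than 3; a gene was taken forward for validation with new siRNAs if at least two of its three siRNAs passed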
- Meaning of the calls: active = raised luciferase; inactive = no rise
Here is a random part of about 59,000 deposited reagents. About 1,510 of all reagents (2.6%) count as active. 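Calls use total luciferase alone and ignore viability, so some active siRNAs may act by altering cell number.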 Entries without a mark were called inactive. Not all columns of the deposit are shown. No sequences are given here.

Which result is listed for HGH1 [SID160724412]?
total luciferase, z-score: 0.541

What is on record for HGH1 [SID160724413]?
total luciferase, z-score: 0.968

What did the screen give for HGH1 [SID160740381]?
total luciferase, z-score: 2.52

With POTEKP [SID160767886], how do the results read?
total luciferase, z-score: -0.69

For POTEKP [SID160767887], what does the deposit list?
total luciferase, z-score: 1.51

How did the screen score POTEKP [SID160767888]?
total luciferase, z-score: 0.0507

Which result is listed for GBP2 [SID160769729]?
total luciferase, z-score: 0.0323

How did the screen score GBP2 [SID160769739]?
total luciferase, z-score: 0.492

With GBP2 [SID160769750], how do the results read?
total luciferase, z-score: -1.28

What is on record for HERC3 [SID160721141]?
total luciferase, z-score: -0.767

What did the screen give for HERC3 [SID160721143]?
total luciferase, z-score: -1.96

For HERC3 [SID160721144], how do the results read?
total luciferase, z-score: -0.575

With SKAP2 [SID160721169], how do the results read?
total luciferase, z-score: -0.451

For SKAP2 [SID160721170], how do the results read?
total luciferase, z-score: 0.18

What is on record for SKAP2 [SID160721171]?
total luciferase, z-score: -0.439

What did the screen give for LHX2 [SID160722017]?
total luciferase, z-score: -1.08

With LHX2 [SID160722019], what was measured?
total luciferase, z-score: 1.7

With LHX2 [SID160722020], what was measured?
total luciferase, z-score: -0.664

For MROH3P [SID160734036], what does the deposit list?
total luciferase, z-score: 0.573

What is on record for MROH3P [SID160770168]?
total luciferase, z-score: -0.61

For MROH3P [SID160770169], how do the results read?
total luciferase, z-score: 0.519

Which result is listed for MROH3P [SID160770170]?
total luciferase, z-score: -0.576

With MROH3P [SID160770171], what does the deposit list?
total luciferase, z-score: 2.54

With MROH3P [SID160770172], how do the results read?
total luciferase, z-score: -0.764

How did the screen score TTC39C [SID160756335]?
total luciferase, z-score: 0.131

For TTC39C [SID160756336], what does the deposit list?
total luciferase, z-score: 0.0665

With TTC39C [SID160756337], how do the results read?
total luciferase, z-score: -0.849

With C20orf96 [SID160757820], what was measured?
total luciferase, z-score: 0.738

How did the screen score C20orf96 [SID160757821]?
total luciferase, z-score: -0.472

Which result is listed for C20orf96 [SID160757822]?
total luciferase, z-score: -0.319

What did the screen give for RDH5 [SID160715765]?
total luciferase, z-score: 0.0779

For RDH5 [SID160715766], how do the results read?
total luciferase, z-score: 1.15

With RDH5 [SID160731650], what was measured?
total luciferase, z-score: 0.572

In a second layout: results already given.
{"gene knocked down":"HGH1","PubChem SID":"SID160724413","total luciferase, z-score":0.968}
{"gene knocked down":"HGH1","PubChem SID":"SID160740381","total luciferase, z-score":2.52}
